{
  "sequences": {"note": "Amino acid sequences for entries named in this document (tags omitted).", "UniProt P17302": "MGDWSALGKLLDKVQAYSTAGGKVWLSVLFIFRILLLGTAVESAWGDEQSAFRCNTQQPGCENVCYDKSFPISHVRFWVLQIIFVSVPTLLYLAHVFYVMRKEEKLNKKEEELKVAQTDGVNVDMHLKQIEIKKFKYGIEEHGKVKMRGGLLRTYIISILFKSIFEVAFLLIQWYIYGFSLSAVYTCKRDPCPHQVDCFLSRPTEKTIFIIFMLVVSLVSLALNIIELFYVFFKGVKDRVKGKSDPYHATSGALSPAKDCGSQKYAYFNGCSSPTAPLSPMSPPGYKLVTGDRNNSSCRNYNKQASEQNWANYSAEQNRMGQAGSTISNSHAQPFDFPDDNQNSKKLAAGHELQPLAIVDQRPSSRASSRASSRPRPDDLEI", "UniProt Q93008": "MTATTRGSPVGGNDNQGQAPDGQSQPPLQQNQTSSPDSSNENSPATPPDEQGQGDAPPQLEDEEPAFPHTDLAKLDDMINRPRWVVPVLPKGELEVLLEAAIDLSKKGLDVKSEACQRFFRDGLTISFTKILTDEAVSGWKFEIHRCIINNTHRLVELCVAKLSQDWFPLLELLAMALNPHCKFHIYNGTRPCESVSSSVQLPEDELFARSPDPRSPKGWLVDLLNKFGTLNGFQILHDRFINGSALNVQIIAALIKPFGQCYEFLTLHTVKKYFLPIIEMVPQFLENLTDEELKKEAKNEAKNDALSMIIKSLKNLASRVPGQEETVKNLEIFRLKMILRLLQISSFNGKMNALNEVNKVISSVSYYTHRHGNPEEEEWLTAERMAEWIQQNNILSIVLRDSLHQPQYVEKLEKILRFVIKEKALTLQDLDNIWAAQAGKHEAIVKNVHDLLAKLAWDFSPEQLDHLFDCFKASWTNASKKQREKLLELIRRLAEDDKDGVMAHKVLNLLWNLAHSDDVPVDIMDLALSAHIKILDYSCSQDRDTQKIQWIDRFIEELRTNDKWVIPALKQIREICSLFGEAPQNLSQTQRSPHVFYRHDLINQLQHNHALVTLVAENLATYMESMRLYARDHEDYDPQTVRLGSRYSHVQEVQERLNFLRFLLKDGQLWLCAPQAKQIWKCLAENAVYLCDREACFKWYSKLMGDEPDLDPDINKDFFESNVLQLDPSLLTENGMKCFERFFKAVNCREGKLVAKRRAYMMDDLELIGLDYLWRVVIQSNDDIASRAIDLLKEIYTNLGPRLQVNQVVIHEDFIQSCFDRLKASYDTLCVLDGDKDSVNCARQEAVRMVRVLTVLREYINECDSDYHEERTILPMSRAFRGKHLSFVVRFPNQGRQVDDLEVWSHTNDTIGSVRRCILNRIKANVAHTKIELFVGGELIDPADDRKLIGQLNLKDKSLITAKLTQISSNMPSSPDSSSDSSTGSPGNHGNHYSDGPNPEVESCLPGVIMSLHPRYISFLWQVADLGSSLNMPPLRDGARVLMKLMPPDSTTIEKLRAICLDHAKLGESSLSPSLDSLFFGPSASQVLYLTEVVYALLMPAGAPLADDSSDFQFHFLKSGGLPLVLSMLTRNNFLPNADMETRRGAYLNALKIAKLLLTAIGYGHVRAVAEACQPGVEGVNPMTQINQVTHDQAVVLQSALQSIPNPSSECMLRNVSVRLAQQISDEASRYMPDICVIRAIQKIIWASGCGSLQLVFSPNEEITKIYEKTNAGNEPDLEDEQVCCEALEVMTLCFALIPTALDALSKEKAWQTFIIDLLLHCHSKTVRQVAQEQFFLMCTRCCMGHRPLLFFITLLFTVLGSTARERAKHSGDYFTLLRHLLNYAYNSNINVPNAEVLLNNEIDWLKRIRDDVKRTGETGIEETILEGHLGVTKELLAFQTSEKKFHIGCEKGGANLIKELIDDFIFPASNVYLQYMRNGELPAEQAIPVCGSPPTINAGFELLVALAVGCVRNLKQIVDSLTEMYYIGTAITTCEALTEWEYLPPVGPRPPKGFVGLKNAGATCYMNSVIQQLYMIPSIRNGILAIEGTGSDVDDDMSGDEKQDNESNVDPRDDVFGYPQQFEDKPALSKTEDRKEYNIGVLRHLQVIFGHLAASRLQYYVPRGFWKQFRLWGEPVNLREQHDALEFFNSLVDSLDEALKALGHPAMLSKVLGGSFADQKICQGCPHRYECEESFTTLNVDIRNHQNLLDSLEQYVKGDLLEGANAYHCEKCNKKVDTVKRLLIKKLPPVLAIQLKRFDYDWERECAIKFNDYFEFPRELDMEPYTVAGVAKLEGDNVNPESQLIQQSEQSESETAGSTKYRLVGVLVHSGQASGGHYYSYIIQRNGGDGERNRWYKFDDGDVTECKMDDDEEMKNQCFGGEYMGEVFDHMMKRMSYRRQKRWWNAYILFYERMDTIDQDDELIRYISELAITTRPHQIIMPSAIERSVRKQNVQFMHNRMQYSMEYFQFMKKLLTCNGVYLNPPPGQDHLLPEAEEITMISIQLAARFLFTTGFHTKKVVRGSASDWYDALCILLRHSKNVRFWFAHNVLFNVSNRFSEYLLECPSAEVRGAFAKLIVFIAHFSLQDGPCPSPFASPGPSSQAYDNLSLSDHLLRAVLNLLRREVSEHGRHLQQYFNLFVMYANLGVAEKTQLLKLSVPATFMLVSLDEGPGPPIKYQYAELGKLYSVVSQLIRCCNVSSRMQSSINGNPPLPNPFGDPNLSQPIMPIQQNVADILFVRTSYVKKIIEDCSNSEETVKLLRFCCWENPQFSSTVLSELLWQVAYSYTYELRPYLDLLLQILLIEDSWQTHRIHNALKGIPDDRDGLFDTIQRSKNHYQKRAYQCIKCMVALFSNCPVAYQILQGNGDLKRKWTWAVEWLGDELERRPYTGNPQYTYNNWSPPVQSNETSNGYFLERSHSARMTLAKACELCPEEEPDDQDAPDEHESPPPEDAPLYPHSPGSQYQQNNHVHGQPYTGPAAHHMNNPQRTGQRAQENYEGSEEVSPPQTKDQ"},
  "source": "paper PMC8983240",
  "target": "Connexin 43 (Cx43), endogenous (human (endogenous in primary ligament fibroblasts from patients)) (UniProt P17302)",
  "assay": "co-IP; primary ligament fibroblast extract with anti-USP9X antibody, anti-Cx43 antibody or control IgG for 1 h at 4°C, A/G-agarose 3 h at 4°C, washed three times with lysis buffer, Western blotting; endogenous proteins",
  "note": "Results are given in words; binding and its absence hold for the method and conditions named. Binding seen in cells or lysates may run through a third protein. Some results given as binding are weak or reduced against the parent protein; the word gives no strength.",
  "data": [
    {"substance": "Ubiquitin-specific protease 9 X-chromosome (USP9X) (from UniProt Q93008 1-2554) (enzyme)", "values": [
      {"measurement": "binding", "value": "binds"}
    ]}
  ]
}
